Some of the results follow. Small differences around the control level are noise.
What was measured:
ppGalNAc-T3 sensor = assay: T3 sensor activation Q score (MG/GFP ratio z-score vs DMSO controls) (SD units); higher = more sensor activation (inhibition of ppGalNAc-T3 glycosylation); conditions: HEK293 sensor cells; 10 µM; 6 h
Description: (§1)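 Cells were treated with compound at 10 uM for 6 h, then MG/GFP ratio was read by flow cytometry (10,000 cells per well, duplicate wells). Q = (R - R_neg)/SD_neg relative to DMSO vehicle controls; the signal rises when the glycosyltransferase is inhibited.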

ppGalNAc-T2 sensor = assay: T2 sensor activation Q score (MG/GFP ratio z-score vs DMSO controls) (SD units); higher = more sensor activation (inhibition of ppGalNAc-T2 glycosylation); conditions: HEK293 sensor cells; 10 µM; 6 h
Description: as §1

Row | SMILES | T3 sensor activation Q score (ppGalNAc-T3 sensor) | T2 sensor activation Q score (ppGalNAc-T2 sensor)
1 | O=C1CC(=O)N(c2ccc(Br)cc2)C(=O)N1 | 0.15 | -0.435
2 | CC(=O)c1ccc(N2CCN(Cc3ccc(Br)cc3)CC2)cc1 | -0.15 | 0.685
3 | COc1ccccc1CN1CCN(Cc2ccccc2)CC1 | -0.985 | -0.115
4 | COc1ccc(CN2CCN(c3ccccc3Cl)CC2)c(OC)c1 | -1.72 | 0.535
5 | COc1ccccc1N1CCN(Cc2ccc(F)c(F)c2)CC1 | -0.215 | 0.265
6 | O=C(NC(=O)c1c(F)cccc1F)Nc1ccc(Cl)cc1 | -1.39 | –
7 | COc1ccc(N2CCN(Cc3ccc(Cl)cc3)CC2)cc1 | 0.035 | 0.44
8 | COc1ccc(OC)c(CN2CCN(c3ccc(F)cc3)CC2)c1 | 0.55 | -0.51
9 | COc1ccc(Br)cc1CN1CCN(c2ccc(F)cc2)CC1 | 0.87 | 1.99
10 | Nc1cc(N2CCNCC2)ccc1[N+](=O)[O-] | 0.67 | -0.545
11 | CCN1CCN(Cc2cc(Br)ccc2OC)CC1 | 0.3 | 0.185
12 | COc1ccccc1N1CCN(Cc2ccc(F)cc2)CC1 | -0.215 | –
13 | COc1cccc(CN2CCN(c3ccccc3)CC2)c1 | -0.415 | -1.19
14 | Cc1[nH]c2ccc(C(=O)O)cc2c1CCN | 1.15 | 0.02
15 | COc1cc(C)c(CN2CCN(c3ccccc3)CC2)cc1C | -0.35 | –
16 | c1ccc(CN2CCN(c3ccccc3)CC2)cc1 | 0.49 | 0.635
17 | C/C=C(\C)CN(C)CCc1ccccn1 | 0.28 | -0.91
18 | O=[N+]([O-])c1ccc(N2CCN(Cc3ccc(Cl)cc3Cl)CC2)cc1 | -0.145 | 0.395
19 | Cc1cccc(CN2CCN(C)CC2)c1 | 0.565 | 0.545
20 | Cc1cccc(-n2c(/C=C/c3ccc([N+](=O)[O-])cc3)nc3ccccc3c2=O)c1 | 0.06 | 0.915
21 | O=[N+]([O-])c1cc(Cl)ccc1N1CCNCC1 | 0.26 | –
22 | COc1ccc(CN2CCN(c3ccccc3)CC2)c(C)c1C | -0.17 | -0.825
23 | Fc1ccc(CN2CCN(c3ccccc3)CC2)cc1Br | 0.42 | 0.87

A second format for three compounds above.
COc1ccc(N2CCN(Cc3ccc(Cl)cc3)CC2)cc1
  T3 sensor activation Q score (ppGalNAc-T3 sensor): 0.035
  T2 sensor activation Q score (ppGalNAc-T2 sensor): 0.44
COc1ccc(OC)c(CN2CCN(c3ccc(F)cc3)CC2)c1
  T3 sensor activation Q score (ppGalNAc-T3 sensor): 0.55
  T2 sensor activation Q score (ppGalNAc-T2 sensor): -0.51
COc1ccc(Br)cc1CN1CCN(c2ccc(F)cc2)CC1
  T3 sensor activation Q score (ppGalNAc-T3 sensor): 0.87
  T2 sensor activation Q score (ppGalNAc-T2 sensor): 1.99

(cont.)

Row | SMILES | T3 sensor activation Q score (ppGalNAc-T3 sensor) | T2 sensor activation Q score (ppGalNAc-T2 sensor)
24 | COc1ccc(OC)c(CN2CCN(c3ccc(Cl)cc3)CC2)c1 | 0.46 | -0.39
25 | COc1ccc(N2CCN(Cc3ccc(F)cc3)CC2)cc1 | 0.17 | 0.59
26 | CN1CCN(Cc2ccc(Cl)cc2Cl)CC1 | -0.15 | -0.73
27 | O=C1NC(=O)C(C(c2ccccc2)c2ccccc2)C(=O)N1 | 1.25 | 0.3
28 | Brc1ccc(CN2CCN(Cc3ccc4c(c3)OCO4)CC2)cc1 | 0.39 | –
29 | Cc1ccc(C(CN)CC(=O)O)cc1 (configuration not stated) | 1.61 | 0.52
30 | COc1ccc(N2CCN(Cc3cccc([N+](=O)[O-])c3)CC2)cc1 | -0.285 | –
31 | COc1ccccc1CN1CCN(c2ccccc2OC)CC1 | 0.245 | 0.54
32 | CCc1ccc(CN2CCN(c3ccccc3OC)CC2)cc1 | 0.8 | 0.81
33 | Cc1ccc(C)c(CN2CCN(C)CC2)c1 | 0.32 | 0.225
34 | CSc1ccc(CN2CCN(c3ccccc3C)CC2)cc1 | 0.21 | 0.77
35 | Fc1ccccc1N1CCN(Cc2ccc(Cl)cc2)CC1 | 0.77 | 0.925
36 | COc1cccc(N2CCN(Cc3ccc(Br)cc3)CC2)c1 | 0.435 | -0.05
37 | O=[N+]([O-])c1ccc(O)c(CN2CCN(c3ccccc3)CC2)c1 | -0.36 | -0.905
38 | CN(C)CCC(=O)c1ccccc1 | 2.7 | -0.85
39 | CCN1CCN(Cc2ccccc2C)CC1 | 0.02 | 1.12
40 | Cc1cccc(CN2CCN(c3ccccc3C)CC2)c1 | 0.435 | 0.87
41 | Fc1cccc(CN2CCN(c3ccccc3Cl)CC2)c1 | -0.03 | 0.12
42 | Cc1ccccc1CN1CCN(c2ccccc2Cl)CC1 | -0.31 | -0.965
43 | COc1ccc(CN2CCN(c3ccccc3)CC2)cc1Br | -0.42 | -1.1
44 | CN(C)c1ccc(CN2CCN(c3ccc(F)cc3)CC2)cc1 | -0.16 | -0.805
45 | COc1cccc(CN2CCN(c3cccc(Cl)c3)CC2)c1OC | -0.015 | -0.455
46 | COc1ccccc1CN1CCN(C)CC1 | 0.06 | -0.015

Row | SMILES | T3 sensor activation Q score (ppGalNAc-T3 sensor) | T2 sensor activation Q score (ppGalNAc-T2 sensor)
47 | CCN1CCN(Cc2cccc([N+](=O)[O-])c2)CC1 | -0.385 | 0.92
48 | CN1CCN(Cc2ccccc2)CC1 | 0.53 | 0.825
49 | CCN1CCN(Cc2ccc(OC)c(OC)c2OC)CC1 | 0 | 0.325
50 | COc1cc(C)c(CN2CCN(c3ccc(F)cc3)CC2)cc1C | 0.9 | 0.525
51 | COc1ccc(CCNC2CCCC(C)C2)cc1 (configuration not stated) | 1.25 | -0.22
52 | OCCN1CCN(Cc2ccccc2F)CC1 | 0.705 | -0.795
53 | Cc1cccc(N2CCN(Cc3ccc(F)cc3)CC2)c1C | -0.275 | -0.91
54 | CC(C)c1ccc(CN2CCN(C)CC2)cc1 | -0.15 | 0.21
55 | COc1ccc(N2CCN(Cc3ccc(OC)c(C)c3)CC2)cc1 | -0.19 | -0.875
56 | COc1ccc(CN2CCN(c3ccccc3)CC2)c(OC)c1 | -0.335 | -1.25
57 | c1ccc(CN2CCN(Cc3ccc4c(c3)OCO4)CC2)cc1 | -0.655 | -0.47
58 | COc1ccccc1CN1CCN(c2cccc(C)c2C)CC1 | 0.27 | -0.15
59 | CCc1ccc(CN2CCN(c3ccccc3F)CC2)cc1 | 0.665 | 1.33
60 | CN1CCC(O)(c2ccccc2)C(C(=O)c2ccccc2)C1 (configuration not stated) | 0.9 | 0.955
61 | Cc1ccc(CN2CCN(c3ccccc3C)CC2)cc1 | 0.5 | 0.035
62 | COc1ccc(CC(=O)N2CCN(C)CC2)cc1 | -0.15 | -0.55
63 | CCOc1ccccc1N1CCN(Cc2ccccc2Cl)CC1 | 0.345 | 0.175
64 | CN1CCN(Cc2cccc(Cl)c2)CC1 | 0.15 | 0.32
65 | Cc1ccccc1CN1CCN(CCO)CC1 | -0.565 | 0.565
66 | COc1cccc(CN2CCN(c3ccc(F)cc3)CC2)c1OC | 0.345 | 1.19
67 | COc1ccc(CN2CCN(c3cccc(C)c3C)CC2)cc1 | 0.7 | 0.185
68 | COc1ccccc1CN1CCN(c2ccccc2Cl)CC1 | 1.25 | 0.69
69 | CCN1CCN(Cc2ccc(OC)c(C)c2C)CC1 | 0.01 | -1.11

Source: the supplement of paper PMC5407854, “Inhibitor of ppGalNAc-T3-mediated O-glycosylation blocks cancer cell invasiveness and lowers FGF23 levels” (eLife, 2017)
